Data source: PubChem BioAssay AID504764 (Drosophila RNAi Screening Center, 2011)

Aim: 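Genes whose knock-down alters Notch-dependent transcription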 (primary screen)
Cells: Drosophila Kc167 cells
Reagent: long dsRNA against Drosophila genes
Timing: about 5 days (4 days dsRNA, then 24 h after transfection)
Treatment: transfection of constitutively active membrane-tethered Notch lacking the extracellular domain, read 24 h later
Read-out: 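Firefly luciferase from an E(spl)m3 reporter with active Notch, plus control-promoter and uninduced reporter wells for normalisation; unnormalised counts, duplicate wells a and b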
Direction: induced reporter light, run 1, well a and induced reporter light, run 1, well b: higher = more light from the Notch target reporter with active Notch; control promoter light, run 1, well a and control promoter light, run 1, well b: higher = more light from the viral control promoter (cell number, transfection, viability); uninduced reporter light, run 1, well a: higher = more light from the Notch target reporter without active Notch
Rule for the call: 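Hit if the duplicate-averaged log2 ratio of induced to control-promoter light gives a plate-wise z beyond ±2, or induced to uninduced beyond ±1.8; weak-control or discordant-duplicate wells dropped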
Meaning of the calls: active = modifier hit (raised or lowered Notch signal); inactive = not a hit
The screen tested about 22,000 reagents; below is an unselected part of those that have a named target and a result. Of all reagents, 403 (1.9%) got an active call. 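Unnormalised raw counts per well; ratio z-scores behind the hit calls and whether each hit raises or lowers signal are not deposited.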 Reagents against one gene are numbered here. A plus sign joins genes that one reagent is predicted to hit. Not given: the amount of reagent.

no.	gene knocked down	reagent no.	induced reporter light, run 1, well a	induced reporter light, run 1, well b	control promoter light, run 1, well a	control promoter light, run 1, well b	uninduced reporter light, run 1, well a	Call
1	CG13041	1	2.62e5	1.72e5	1.84e5	1.95e5	8160	inactive
2	CG33253	1	87185	63190	82635	88485	7985	inactive
3	CG33253	2	87515	1.00e5	89010	1.48e5	10740	inactive
4	CG9287	1	1.81e5	2.11e5	97800	1.22e5	21070	inactive
5	CG9287	2						active
6	Jhbp11	1	2.43e5	2.89e5	2.14e5	2.46e5	15638	active
7	dgt5	1	1.89e5	1.68e5	1.59e5	1.77e5	16885	inactive
8	CG5421	1	1.39e5	1.30e5	1.27e5	1.62e5	11035	inactive
9	CG15251 (retired record)	1	1.26e5	1.41e5	2.46e5	2.71e5	9780	inactive
10	Cda4	1	78085	62170	90170	1.34e5	9605	inactive
11	Cda4	2	79715	98220	82965	1.04e5	10130	inactive
12	Cda4	3	83845	1.02e5	1.13e5	1.28e5	10305	inactive
13	Peritrophin-15a	1	1.30e5	1.42e5	80865	1.04e5	18580	inactive
14	CG32856	1	1.43e5	1.09e5	1.51e5	1.54e5	9230	inactive
15	IP3K2	1	1.52e5	1.26e5	2.00e5	2.00e5	9120	inactive
16	IP3K2	2	1.20e5	1.31e5	2.92e5	2.35e5	8640	inactive
17	RhoGAP16F	1	1.06e5	1.06e5	98480	66745	9755	inactive
18	Uba1	1	48350	56835	44225	43145	5788	inactive
19	CG32225	1	3.35e5	2.84e5	2.86e5	2.91e5	25555	inactive
20	CG3301	1	235	125	265	235	50	inactive
21	CG32668	1	85565	86445	1.18e5	93045	7040	inactive
22	CG18635	1	1.70e5	1.73e5	2.63e5	2.29e5	12500	inactive

Laid out differently: results already given.
Jhbp11 | induced reporter light, run 1, well a = 2.43e5; induced reporter light, run 1, well b = 2.89e5; control promoter light, run 1, well a = 2.14e5; control promoter light, run 1, well b = 2.46e5; uninduced reporter light, run 1, well a = 15638; Call = active
dgt5 | induced reporter light, run 1, well a = 1.89e5; induced reporter light, run 1, well b = 1.68e5; control promoter light, run 1, well a = 1.59e5; control promoter light, run 1, well b = 1.77e5; uninduced reporter light, run 1, well a = 16885; Call = inactive
CG5421 | induced reporter light, run 1, well a = 1.39e5; induced reporter light, run 1, well b = 1.30e5; control promoter light, run 1, well a = 1.27e5; control promoter light, run 1, well b = 1.62e5; uninduced reporter light, run 1, well a = 11035; Call = inactive
CG15251 (retired record) | induced reporter light, run 1, well a = 1.26e5; induced reporter light, run 1, well b = 1.41e5; control promoter light, run 1, well a = 2.46e5; control promoter light, run 1, well b = 2.71e5; uninduced reporter light, run 1, well a = 9780; Call = inactive

Further reagents:
no.	gene knocked down	reagent no.	induced reporter light, run 1, well a	induced reporter light, run 1, well b	control promoter light, run 1, well a	control promoter light, run 1, well b	uninduced reporter light, run 1, well a	Call
23	Actbeta	1	69935	77185	81095	87165	4855	inactive
24	Actbeta	2	1.26e5	1.26e5	2.02e5	1.95e5	8465	inactive
25	Nha2	1	1.60e5	1.50e5	1.91e5	2.18e5	15420	inactive
26	Nha2	2	75200	83625	84845	88260	13060	active
27	Nha2	3	1.61e5	1.67e5	2.30e5	1.90e5	13550	inactive
28	CG13461	1	1.87e5	1.52e5	1.71e5	1.80e5	13150	inactive
29	cta	1	2.11e5	2.21e5	1.82e5	1.93e5	13620	inactive
30	CG13295	1	2.26e5	2.11e5	2.46e5	2.78e5	7840	inactive
31	mrn	1	1.24e5	1.29e5	82540	1.04e5	11510	inactive
32	GlyRS	1	67135	57185	45160	42290	5712	inactive
33	CG6048	1	1.67e5	1.68e5	3.07e5	3.22e5	10700	inactive
34	mRpS10	1	2.63e5	2.11e5	2.18e5	2.11e5	19180	inactive
35	CG13319	1	1.99e5	1.97e5	2.86e5	2.81e5	15145	inactive
36	Kyat	1	1.09e5	1.14e5	1.08e5	81155	13405	inactive
37	Vago	1	1.25e5	1.12e5	2.65e5	2.11e5	9740	inactive
38	Invadolysin	1	72575	70115	71865	46830	5125	inactive
39	Ald1	1	1.36e5	1.63e5	1.99e5	2.26e5	12538	inactive
40	CG7950 + Rpp14a	1	1.43e5	1.26e5	2.30e5	2.36e5	10415	inactive
41	SLIRP2	1	81625	93625	70455	65140	4950	inactive
42	slow	1	1.35e5	1.41e5	1.04e5	56135	12230	inactive
43	slow	2	2.07e5	2.55e5	2.90e5	2.73e5	12480	inactive
44	CG13738	1	2.18e5	2.10e5	2.83e5	2.36e5	21225	inactive
45	CG15332	1	1.20e5	1.43e5	2.87e5	2.17e5	9690	inactive
46	Fs(2)Ket	1	1.29e5	1.31e5	1.57e5	1.69e5	9435	inactive
47	CG32444	1	1.21e5	1.25e5	71560	87270	9405	inactive
48	CG12831	1	2.62e5	2.04e5	2.26e5	2.93e5	19690	inactive
49	Hel89B	1	1.77e5	1.98e5	2.49e5	2.44e5	14460	inactive
50	CG4701	1	98310	1.14e5	1.23e5	1.15e5	9650	inactive
